Reference: publication doi:10.1101/679936
Results are given in words; binding and its absence hold for the method and conditions named. In cells and extracts the contact can be indirect. Some entries that bind do so weakly or less than the wild type. Tags and fused reporters may be left off the sequences shown.

Biological target: T1, FLAG-SCAP D451A/L452A (hamster) (UniProt P97260)
T1 sequence: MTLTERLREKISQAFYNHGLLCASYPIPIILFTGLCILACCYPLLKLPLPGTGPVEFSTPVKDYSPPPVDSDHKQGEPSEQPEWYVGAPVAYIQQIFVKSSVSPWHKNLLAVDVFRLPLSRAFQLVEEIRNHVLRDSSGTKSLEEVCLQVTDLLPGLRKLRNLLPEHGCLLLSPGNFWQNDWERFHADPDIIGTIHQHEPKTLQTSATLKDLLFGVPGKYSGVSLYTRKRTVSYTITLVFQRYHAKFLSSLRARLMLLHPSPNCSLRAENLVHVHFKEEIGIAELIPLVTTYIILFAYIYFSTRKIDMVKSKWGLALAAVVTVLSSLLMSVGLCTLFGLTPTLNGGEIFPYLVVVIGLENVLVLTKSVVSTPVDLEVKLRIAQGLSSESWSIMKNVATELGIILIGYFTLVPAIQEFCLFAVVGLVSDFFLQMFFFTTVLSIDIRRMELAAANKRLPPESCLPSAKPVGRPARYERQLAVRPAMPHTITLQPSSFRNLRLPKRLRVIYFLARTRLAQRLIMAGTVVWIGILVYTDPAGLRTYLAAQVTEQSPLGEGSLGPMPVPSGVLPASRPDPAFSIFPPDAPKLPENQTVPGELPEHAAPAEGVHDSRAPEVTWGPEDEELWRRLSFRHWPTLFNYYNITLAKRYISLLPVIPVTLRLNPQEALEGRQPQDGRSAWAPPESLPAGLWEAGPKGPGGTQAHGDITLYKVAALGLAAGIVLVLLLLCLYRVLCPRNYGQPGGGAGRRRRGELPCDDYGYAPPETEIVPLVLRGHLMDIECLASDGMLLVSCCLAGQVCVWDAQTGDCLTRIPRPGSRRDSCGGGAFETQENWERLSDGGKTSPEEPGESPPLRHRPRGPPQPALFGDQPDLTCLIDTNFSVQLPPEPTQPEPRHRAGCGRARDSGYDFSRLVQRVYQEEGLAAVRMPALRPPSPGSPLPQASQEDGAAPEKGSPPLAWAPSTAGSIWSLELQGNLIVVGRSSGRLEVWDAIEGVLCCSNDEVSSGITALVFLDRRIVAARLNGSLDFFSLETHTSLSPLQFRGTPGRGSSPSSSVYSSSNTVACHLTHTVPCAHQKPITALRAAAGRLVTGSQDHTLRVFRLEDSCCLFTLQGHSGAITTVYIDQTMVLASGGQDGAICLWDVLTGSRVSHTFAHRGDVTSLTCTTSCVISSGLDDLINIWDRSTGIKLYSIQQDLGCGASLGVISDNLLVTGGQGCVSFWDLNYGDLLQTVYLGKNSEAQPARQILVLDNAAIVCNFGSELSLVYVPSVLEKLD
Experiment: co-IP

B1: Sac1, endogenous in HEK 293T (protein, UniProt Q9NTJ5 1-587)
chain: MATAAYEQLKLHITPEKFYVEACDDGADDVLTIDRVSTEVTLAVKKDVPPSAVTRPIFGILGTIHLVAGNYLIVITKKIKVGEFFSHVVWKATDFDVLSYKKTMLHLTDIQLQDNKTFLAMLNHVLNVDGFYFSTTYDLTHTLQRLSNTSPEFQEMSLLERADQRFVWNGHLLRELSAQPEVHRFALPVLHGFITMHSCSINGKYFDWILISRRSCFRAGVRYYVRGIDSEGHAANFVETEQIVHYNGSKASFVQTRGSIPVFWSQRPNLKYKPLPQISKVANHMDGFQRHFDSQVIIYGKQVIINLINQKGSEKPLEQTFATMVSSLGSGMMRYIAFDFHKECKNMRWDRLSILLDQVAEMQDELSYFLVDSAGQVVANQEGVFRSNCMDCLDRTNVIQSLLARRSLQAQLQRLGVLHVGQKLEEQDEFEKIYKNAWADNANACAKQYAGTGALKTDFTRTGKRTHLGLIMDGWNSMIRYYKNNFSDGFRQDSIDLFLGNYSVDELESHSPLSVPRDWKFLALPIIMVVAFSMCIICLLMAGDTWTETLAYVLFWGVASIGTFFIILYNGKDFVDAPRLVQKEKID
**Q.** B1 was tested. Which binding did it give?
**A.** The binding was “binds weakly”.
